The list is a part of this screen's results and no random one: it is rich in T/C values a quarter to a half above the control, in often repeated tests (any T/C) and in doses without a T/C. Other doses and runs of a compound stand elsewhere. T/C: endpoint of the treated group in % of that of the vehicle group. Some doses have a count of surviving animals in place of a T/C: the source files T/C as zero there, which appears to mark a toxic dose or a test without result, not a measured value. Some doses without a T/C left all or most animals alive at the check, yet need not have been tolerated: survival well below the control is almost never listed, so the zero probably covers shortened survival too. Survivors were counted at the toxicity check, usually on the fifth day, unless a day is given; later deaths do not show. Schedules are NCI's codes, read here as Q, the interval in days (D) or hours (H), X, the number of doses. Signs of the kind (2×) say how often a value occurs here. Some entries were tested several times; the values are given in rising order. Where survival is the endpoint, the PubChem record calls one and a half times the control and up active, and a quarter to a half above the control has no call in these data; cut-offs in other NCI protocols can differ. Some T/C values are followed by the survivors on the day toxicity was checked, most often the fifth; without a count, all were alive then.
System: BDF1 mice, B16 melanoma ip, median survival T/C
Assay: NCI In Vivo Anticancer Drug Screen. Data for tumor model B16 Melanoma (intraperitoneal) in B6D2F1 (BDF1) mice
Details: T/C endpoint: median survival time, higher T/C = longer survival
Method in brief: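 Values are ratios of treated (T) to vehicle-control (C) measurements of survival or tumor size in tumor-bearing mice.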

[1] = dose: 6.25 mg/kg/injection, schedule: Q01DX009 (ip), vehicle: Klucel (hydroxypropylcellulose) (HPC)
[2] = dose: 25.0 mg/kg/injection, schedule: Q01DX009 (ip), vehicle: Klucel (hydroxypropylcellulose) (HPC)
[3] = dose: 200.0 mg/kg/injection, schedule: Q01DX009 (ip), vehicle: Klucel (hydroxypropylcellulose) (HPC)

With `C(=P(c1ccccc1)(c1ccccc1)c1ccccc1)[P+](c1ccccc1)(c1ccccc1)c1ccccc1` the T/C (dose: 1.56 mg/kg/injection, schedule: Q01DX009 (ip), vehicle: suspension in saline) was 133 % of control, the T/C (dose: 3.12 mg/kg/injection, schedule: Q01DX009 (ip), vehicle: suspension in saline) was 138 % of control and the T/C [1] was 132 % of control. The survivor count (dose: 12.5 mg/kg/injection, schedule: Q01DX009 (ip), vehicle: Klucel (hydroxypropylcellulose) (HPC)) was 8 of 10, the survivor count (dose: 12.5 mg/kg/injection, schedule: Q01DX009 (ip), vehicle: suspension in saline) was 9 of 10 and the survivor count [2] was 5 of 10. The survivor count (dose: 50.0 mg/kg/injection, schedule: Q01DX009 (ip), vehicle: Klucel (hydroxypropylcellulose) (HPC)) was 0 of 10.

In the case of `C/C=C/C=C/c1cc2cc3c(c(O)c2c(=O)[nH]1)C1(CC3)C(O)=c2c(=O)c3c(=O)cc(OC)c(=O)c=3c(=O)c2=C1O` (configuration not stated), the survivor count (dose: 1.0 mg/kg/injection, schedule: Q01DX009 (ip), vehicle: DMSO) is reported as 10 of 10 and the survivor count (dose: 2.0 mg/kg/injection, schedule: Q01DX009 (ip), vehicle: DMSO) is reported as 0 of 10.

For `COC1=C2C[C@@H](C)C[C@@H](OC)[C@@H](O)[C@H](C)/C=C(\C)[C@@H](OC(N)=O)[C@H](OC)/C=C\C=C(/C)C(=O)NC(=CC1=O)C2=O`, the T/C (dose: 1.0 mg/kg/injection, schedule: Q01DX005 (ip), vehicle: other) was 127 % of control, the T/C (dose: 1.0 mg/kg/injection, schedule: Q01DX005 (ip), vehicle: water) was 130 % of control and the T/C (dose: 1.0 mg/kg/injection, schedule: Q01DX009 (ip), vehicle: saline with Tween-80) was 125 % of control. For the same compound, the survivor count (dose: 2.0 mg/kg/injection, schedule: Q01DX005 (ip), vehicle: other) was 3 of 6, the T/C (dose: 2.0 mg/kg/injection, schedule: Q01DX005 (ip), vehicle: water, evaluated on day 45) was 130 % of control and the T/C (dose: 2.0 mg/kg/injection, schedule: Q01DX005 (ip), vehicle: water, evaluated on day 60) was 125 % of control. For the same compound, the T/C (dose: 2.0 mg/kg/injection, schedule: Q01DX009 (ip), vehicle: saline with Tween-80) was 145 % of control, the survivor count (dose: 4.0 mg/kg/injection, schedule: Q01DX005 (ip), vehicle: other) was 0 of 6 and the T/C (dose: 4.0 mg/kg/injection, schedule: Q01DX005 (ip), vehicle: saline with Tween-80) was 138 % of control [9 of 10 alive]. The survivor count (dose: 4.0 mg/kg/injection, schedule: Q01DX005 (ip), vehicle: water) was 1 of 6 and 2 of 6, the survivor count (dose: 4.0 mg/kg/injection, schedule: Q01DX009 (ip), vehicle: saline with Tween-80) was 7 of 10 and the survivor count (dose: 8.0 mg/kg/injection, schedule: Q01DX005 (ip), vehicle: water) was 0 of 6 (2×).

`CCCCCCCCCCCCCCCCCC[N+](C)(C)C` (tested in a mixture with another compound) was tested, and the survivor count (dose: 8.0 mg/kg/injection, schedule: Q01DX009 (ip), vehicle: saline sonified) was 6 of 6.

For `O=C1CN=C(c2ccccc2)c2cc([N+](=O)[O-])ccc2N1`, the survivor count (dose: 0.78 mg/kg/injection, schedule: Q01DX009 (ip), vehicle: Klucel (hydroxypropylcellulose) (HPC)) was 10 of 10, the survivor count (dose: 1.56 mg/kg/injection, schedule: Q01DX009 (ip), vehicle: Klucel (hydroxypropylcellulose) (HPC)) was 10 of 10 and the survivor count [1] was 10 of 10. For the same compound, the survivor count [2] was 9 of 10 and the survivor count [3] was 10 of 10.

For `C=C/C(C)=C/[C@H](C)C(=O)C[C@H](O)CC1CC(=O)NC(=O)C1`, the T/C (dose: 50.0 mg/kg/injection, schedule: Q01DX009 (ip), vehicle: saline with Tween-80) was 128 % of control [9 of 10 alive] and the survivor count (dose: 200.0 mg/kg/injection, schedule: Q01DX009 (ip), vehicle: saline with Tween-80) was 6 of 10.

`COc1cc2c(cc1OC)C(CN)C2` (configuration not stated) was tested, and the survivor count [3] was 0 of 10.

In the case of `C=C(C)CNC1=C(C)C(=O)C2=C(C1=O)[C@H](COC(N)=O)[C@]1(OC)[C@@H]3N[C@@H]3CN21`, the T/C (dose: 0.5 mg/kg/injection, schedule: Q01DX001 (ip), vehicle: distilled water + Tween-80) is reported as 130 % of control, the T/C (dose: 1.0 mg/kg/injection, schedule: Q01DX001 (ip), vehicle: distilled water + Tween-80) is reported as 129 % of control and the survivor count (dose: 24.0 mg/kg/injection, schedule: Q04DX003 (ip), vehicle: distilled water + Tween-80) is reported as 9 of 10.

`O=CNc1cc2ccccc2c2ccc3ccccc3c12` was tested, and the survivor count (dose: 200.0 mg/kg/injection, schedule: Q04DX003 (ip), vehicle: Klucel (hydroxypropylcellulose) (HPC)) was 9 of 10.

`O=C(Nc1ccccc1)c1ccc(C(F)(F)F)cc1O` was tested, and the survivor count (dose: 100.0 mg/kg/injection, schedule: Q01DX009 (ip), vehicle: Klucel (hydroxypropylcellulose) (HPC)) was 10 of 10 and the survivor count [3] was 9 of 10.

`O=c1[nH]c(-c2ccccc2)c(-c2ccccc2)[nH]1` was tested, and the survivor count (dose: 400.0 mg/kg/injection, schedule: Q01DX009 (ip), vehicle: saline with Tween-80) was 6 of 6.

— PubChem BioAssay AID192 (DTP/NCI, 2004)
